Experimental data from PubChem BioAssay AID504834 (National Center for Advancing Translational Sciences (NCATS), 2011).
The campaign covered roughly 320,000 compounds. About 22,000 (6.9%) were called active. Inconclusive results, whose numbers are uncertain, are shown with a selection of clear calls. Calls follow the shape of the dose curve; as a rule, active = well fitted inhibition curve with a large enough effect; inconclusive = small, poorly fitted or top-dose-only effect, or another doubt; inactive = no such curve, though single readings can be large or run the other way. A potency beside an inconclusive call is a rough fit, not a confirmed value.

Test: Primary qHTS for delayed death inhibitors of the malarial parasite plastid, 96 hour incubation
Conditions: P. falciparum luciferase reporter growth; series mostly up to 28.7 µM
How it was run: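 Cell-based qHTS: luciferase-tagged P. falciparum in erythrocytes (2% hematocrit, 0.05% parasitemia final) incubated with compounds for 96 hours, 37 C, 5% CO2; luciferase detection reagent then added and luminescence measured.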
Potency is read from the fitted curve at half-maximal effect.

Compound | Potency
O=C(c1ccc(F)cc1)N1CCCC(C(=O)N2CCCCC2)C1 (centres undefined) | inconclusive: 18.5 µM [inhibitor, single point]
CN(CC(=O)Nc1cccc2ccccc12)C(=O)c1cccc(S(=O)(=O)N(C)C)c1 | inconclusive: 18.5 µM [inhibitor, single point]
N#Cc1cc(-c2ccc(Cl)cc2)cnc1Sc1ccccc1 | inconclusive: 0.037 µM [inhibitor, full curve, poor fit]
Cc1ccc(-c2nc(CS(=O)CC(=O)NC3CC3)c(C)o2)cc1 (centres undefined) | inconclusive: 18.5 µM [inhibitor, single point]
COC(=O)Cn1c(=NC(=O)c2ccc([N+](=O)[O-])s2)sc2cc(Br)ccc21 | active: 0.828 µM
Cc1nn(-c2ccccc2)c(/N=C/c2ccccc2O)c1-c1ccccc1 | inconclusive: 10.4 µM [inhibitor, single point]
CCOc1ccc(Nc2cc(=O)oc3ccccc23)cc1 | active: 1.65 µM
CCCCn1nnnc1SCC(=O)N1CCCC1 | inactive
CCN1CCN(C(=O)CCS(=O)(=O)c2cc3c(cc2Cl)NC(=O)CO3)CC1 | inconclusive: 4.15 µM [inhibitor, partial curve, poor fit]
Cc1ccc2c(c1)cc1c(=O)[nH]ncn12 | inactive
COc1ccc(CNC(=O)c2nnn(Cc3ccc(OC)cc3)c2N)cc1 | inconclusive: 11.7 µM [inhibitor, single point]
COCCN(C(=O)CSc1nnc(Nc2ccccc2F)s1)c1c(N)n(Cc2ccccc2)c(=O)[nH]c1=O | inconclusive: 16.5 µM [inhibitor, single point]
Cc1nn(CC(=O)Nc2ccc3c(c2)nc2n3CCN(C3CCCCC3)C2)c(=O)c2ccccc12 | inconclusive: 18.5 µM [inhibitor, single point]
O=C(O)c1ccc2c(c1)C(=O)N(c1ccc(/C=C/C(=O)c3ccccc3)cc1)C2=O | inconclusive: 9.28 µM [inhibitor, partial curve]
CCc1nnc(NC(=O)CSc2nnc(CSc3nc(C)cc(C)n3)n2C)s1 | inconclusive: 18.5 µM [inhibitor, partial curve, poor fit]
CCOc1cc(/C=C2/N=C(c3ccc4c(c3)OCO4)OC2=O)ccc1OC(C)=O | inactive
O=C(Nc1ccccc1O)c1cc(S(=O)(=O)N2CCOCC2)ccc1Cl | inconclusive: 4.65 µM [inhibitor, partial curve]
Cc1cc(C)c(NC(=O)CS(=O)CC(=O)N2CCN(c3ccc(F)cc3)CC2)c(C)c1 (centres undefined) | inactive
O=C(Cc1ccccc1F)N1CCN(S(=O)(=O)c2ccc(Cl)cc2)CC1 | inconclusive: 18.5 µM [inhibitor, single point]

Looked up by compound from above:
Compound | Potency
CCc1nnc(NC(=O)CSc2nnc(CSc3nc(C)cc(C)n3)n2C)s1 | inconclusive: 18.5 µM [inhibitor, partial curve, poor fit]
N#Cc1cc(-c2ccc(Cl)cc2)cnc1Sc1ccccc1 | inconclusive: 0.037 µM [inhibitor, full curve, poor fit]
